# PubChem BioAssay AID1053209, Peter MacCallum Cancer Centre, 2014
# Screen: 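Follow-up of single siRNAs that strengthen doxorubicin killing in osteosarcoma cells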 (follow-up of hits)
# Cells: mouse primary osteosarcoma cells
# Reagent: single siRNA against mouse genes, 25 nM (text also states 40 nM)
# Duration: about 120 h (48 h before drug, then 72 h with drug)
# Challenge: doxorubicin 100 nM (about IC30-40), added 48 h after transfection, for 72 h
# Read-out: 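ATP-based luminescent viability, with or without doxorubicin, relative to non-targeting control NT1, mean of two replicates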
# Scale: viability with doxorubicin, vs NT1: higher = more viable cells under doxorubicin; viability ratio, doxorubicin over no drug: higher = less sensitisation to doxorubicin; viability without drug, vs NT1: higher = more viable cells without drug
# Hit rule: 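Counted as active (class LC dox) if viability falls to 0.7 of NT1 or below under doxorubicin but stays within 0.7 to 1.1 without drug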
# This is an unselected part of about 1,580 reagents. In the full data, 207 (13%) are marked active. 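Rows are single siRNAs; four siRNAs per gene were tested, a gene counting as confirmed only when at least two agree.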 Reagents against one gene are numbered here.
gene knocked down,siRNA no.,combined effect class,"viability with doxorubicin, vs NT1","viability ratio, doxorubicin over no drug","viability without drug, vs NT1",call
Cdc50a (GeneID 69981),1,normal viability with and without drug,0.96,0.89,1.08,inactive
Cdc50a (GeneID 69981),2,low viability only with doxorubicin; normal without drug,0.68,0.79,0.86,active
Cdc50a (GeneID 69981),3,normal viability with and without drug,1,1.05,0.95,inactive
Cdc50a (GeneID 69981),4,low viability only with doxorubicin; normal without drug,0.64,0.68,0.94,active
Cnn1 (GeneID 12797),1,low viability only with doxorubicin; normal without drug,0.65,0.8,0.81,active
Cnn1 (GeneID 12797),2,normal viability with and without drug,0.98,0.93,1.05,inactive
Cnn1 (GeneID 12797),3,low viability with and without drug,0.46,0.92,0.5,inactive
Cnn1 (GeneID 12797),4,normal viability with and without drug,0.9,1.02,0.88,inactive
Tnfrsf1a (GeneID 21937),1,normal viability with and without drug,0.96,1.02,0.94,inactive
Tnfrsf1a (GeneID 21937),2,normal viability with and without drug,0.94,1.01,0.93,inactive
Tnfrsf1a (GeneID 21937),3,normal viability with and without drug,1.05,1.11,0.95,inactive
Tnfrsf1a (GeneID 21937),4,high viability only without drug,1.08,0.98,1.1,inactive
Snrnp70 (GeneID 20637),1,low viability only with doxorubicin; normal without drug,0.66,0.77,0.86,active
Snrnp70 (GeneID 20637),2,normal viability with and without drug,0.84,0.9,0.93,inactive
Snrnp70 (GeneID 20637),3,low viability only with doxorubicin; normal without drug,0.4,0.55,0.73,active
Snrnp70 (GeneID 20637),4,normal viability with and without drug,0.92,0.99,0.93,inactive

Next part (4 carried over from the part before).
gene knocked down,siRNA no.,combined effect class,"viability with doxorubicin, vs NT1","viability ratio, doxorubicin over no drug","viability without drug, vs NT1",call
Snrnp70 (GeneID 20637),1,low viability only with doxorubicin; normal without drug,0.66,0.77,0.86,active
Snrnp70 (GeneID 20637),2,normal viability with and without drug,0.84,0.9,0.93,inactive
Snrnp70 (GeneID 20637),3,low viability only with doxorubicin; normal without drug,0.4,0.55,0.73,active
Snrnp70 (GeneID 20637),4,normal viability with and without drug,0.92,0.99,0.93,inactive
Slc16a6 (GeneID 104681),1,normal viability with and without drug,0.78,0.89,0.88,inactive
Slc16a6 (GeneID 104681),2,normal viability with and without drug,0.98,0.96,1.02,inactive
Slc16a6 (GeneID 104681),3,normal viability with and without drug,0.92,0.94,0.98,inactive
Slc16a6 (GeneID 104681),4,normal viability with and without drug,0.99,0.97,1.02,inactive
Elp1 (GeneID 230233),1,normal viability with and without drug,1.04,0.96,1.08,inactive
Elp1 (GeneID 230233),2,normal viability with and without drug,1.01,1.26,0.8,inactive
Elp1 (GeneID 230233),3,normal viability with and without drug,0.84,1.02,0.82,inactive
Elp1 (GeneID 230233),4,normal viability with and without drug,0.92,0.96,0.96,inactive
Ube2i (GeneID 22196),1,normal viability with and without drug,0.73,0.84,0.87,inactive
Ube2i (GeneID 22196),2,low viability with and without drug,0.41,0.71,0.58,inactive
Ube2i (GeneID 22196),3,low viability only with doxorubicin; normal without drug,0.6,0.7,0.86,active
Ube2i (GeneID 22196),4,low viability with and without drug,0.46,0.72,0.64,inactive
Egln3 (GeneID 112407),1,high viability only with doxorubicin,1.11,1.11,1,inactive
Egln3 (GeneID 112407),2,low viability only with doxorubicin; normal without drug,0.7,0.81,0.86,active
Egln3 (GeneID 112407),3,normal viability with and without drug,0.98,1.07,0.92,inactive
Egln3 (GeneID 112407),4,normal viability with and without drug,1,1.04,0.96,inactive
Lrrcc1 (GeneID 71710),1,high viability only with doxorubicin,1.18,1.09,1.08,inactive
Lrrcc1 (GeneID 71710),2,normal viability with and without drug,0.95,0.97,0.98,inactive
Lrrcc1 (GeneID 71710),3,normal viability with and without drug,0.94,1.07,0.88,inactive
Lrrcc1 (GeneID 71710),4,normal viability with and without drug,0.86,0.88,0.98,inactive
Nop58 (GeneID 55989),1,normal viability with and without drug,0.85,0.9,0.94,inactive
Nop58 (GeneID 55989),2,low viability with and without drug,0.6,0.88,0.68,inactive
Nop58 (GeneID 55989),3,normal viability with and without drug,1.08,1.06,1.02,inactive
Nop58 (GeneID 55989),4,normal viability with and without drug,1.09,1.01,1.08,inactive
